Hit rate of the full screen: of about 300,000 compounds, about 3,700 (1.2%) were called active. Inconclusive means that the source gave no clear call. Such entries were picked first, then a sample of the others. Calls come from the whole dose curve; tested in HEK293 cells. A potency beside an inconclusive call is a rough fit, not a confirmed value.
experiment: qHTS for Inhibitors of binding or entry into cells for Lassa Virus; settings: Lassa virus pseudotype entry inhibition, cell reporter; activity change, negative = inhibition: at 37.9 µM (top of the series) unless noted; note: nearly all actives have a fitted effect of over 50% in size
% is set by controls: 0 for no effect and ±100 for the full control effect; potency is the fitted concentration of half-maximal effect.

| SMILES | Potency | activity change, negative = inhibition |
| --- | --- | --- |
| CCCN(C(=O)COC(=O)CC1CCCCC1)c1c(N)n(Cc2ccccc2)c(=O)[nH]c1=O | inconclusive: 1.12 µM [inhibitor, single point] |  |
| COc1ccc(-c2cc(C(=O)Nc3cc(C)nn3-c3ccccc3)no2)cc1 |  | inactive: 0.572% |
| COc1ccc(CNC(=O)CN2C(=O)NC(C)(c3cccc4ccccc34)C2=O)cc1OC (centres undefined) | inconclusive: 35.5 µM [inhibitor, single point] |  |
| CC(C)[C@H](NC(=O)c1ccc([N+](=O)[O-])cc1Cl)C(=O)N1CCN(C/C=C/c2ccccc2)CC1 | inconclusive: 22.4 µM [inhibitor, partial curve, poor fit] |  |
| CN(CC(O)CN1CCOCC1)S(=O)(=O)O (centres undefined) |  | inactive: 16.7% |
| COc1ccccc1N1CCN(/N=C/C=C\c2ccco2)CC1 | inconclusive: 35.5 µM [inhibitor, single point] |  |
| Cc1nc2c3cnn(-c4ccccc4)c3ncn2n1 |  | inactive: 13.3% |
| CCOC(=O)c1ccc(N2C(=O)c3[nH]nc(-c4ccc(OCC)cc4)c3C2c2cccs2)cc1 (centres undefined) | inconclusive: 12.6 µM [inhibitor, partial curve, poor fit] |  |
| Cc1cc2n(n1)CCC(=O)N2Cc1ccc(C(=O)Nc2ccc(F)cc2F)cc1 |  | inactive: -19.6% [at 46.1 µM] |
| O/C(=C\c1nc2ccccc2[nH]1)c1cccs1 | inconclusive: 6.31 µM [activator, partial curve, poor fit] |  |
| CCCN(CCC)Cc1c(C(=O)N/N=C/c2ccsc2)nnn1-c1nonc1N |  | inactive: 11% |
| CCOC(=O)c1c(-c2ccc(-c3ccccc3)cc2)csc1NC(=O)CNCCN(C)C | inconclusive: 35.5 µM [inhibitor, single point] |  |
| CSc1nc(SCCN(C)C)c2c3c(sc2n1)COC(C)(C)C3 | inconclusive: 35.5 µM [inhibitor, single point] |  |
| NC(=O)c1ccsc1NC(=O)c1nc(-c2ccccc2)n(-c2ccccc2)n1 | inconclusive: 0.184 µM [inhibitor, partial curve, poor fit] |  |
| CC(C)c1ccccc1NC(=O)COc1ccc(C(=O)NCCc2ccccc2)cc1 | inconclusive: 15.8 µM [inhibitor, partial curve, poor fit] |  |
| O=C(Nc1ccc(Br)cc1)Nc1ccccc1F | inconclusive: 35.5 µM [inhibitor, single point] |  |
| O=C(Cc1ccc(Cl)c(Cl)c1)OCC(=O)c1ccc[nH]1 |  | inactive: 2.01% |
| O=[N+]([O-])c1ccc(NC(=S)N2CCc3ccccc32)cc1 | inconclusive: 35.5 µM [inhibitor, single point] |  |
| COc1ccc(Cn2ccc3nc(C)c(C(=O)N4CCN(c5ccc(OC)cc5)CC4)cc3c2=O)cc1 | inconclusive: 35.5 µM [inhibitor, single point] |  |

Another view of four compounds above.
SMILES	Potency	activity change, negative = inhibition
Cc1cc2n(n1)CCC(=O)N2Cc1ccc(C(=O)Nc2ccc(F)cc2F)cc1		inactive: -19.6% [at 46.1 µM]
O/C(=C\c1nc2ccccc2[nH]1)c1cccs1	inconclusive: 6.31 µM [activator, partial curve, poor fit]	
CCCN(CCC)Cc1c(C(=O)N/N=C/c2ccsc2)nnn1-c1nonc1N		inactive: 11%
CCOC(=O)c1c(-c2ccc(-c3ccccc3)cc2)csc1NC(=O)CNCCN(C)C	inconclusive: 35.5 µM [inhibitor, single point]	
